According to the supplement of paper PMC7666118:
The list shows a part of the results.

By UniProt entry, the sequences of proteins in these tests, tags left out. Where a name states a change or a piece, a line headed by the entry shows the natural chain unless it says otherwise.
UniProt Q8N4C8: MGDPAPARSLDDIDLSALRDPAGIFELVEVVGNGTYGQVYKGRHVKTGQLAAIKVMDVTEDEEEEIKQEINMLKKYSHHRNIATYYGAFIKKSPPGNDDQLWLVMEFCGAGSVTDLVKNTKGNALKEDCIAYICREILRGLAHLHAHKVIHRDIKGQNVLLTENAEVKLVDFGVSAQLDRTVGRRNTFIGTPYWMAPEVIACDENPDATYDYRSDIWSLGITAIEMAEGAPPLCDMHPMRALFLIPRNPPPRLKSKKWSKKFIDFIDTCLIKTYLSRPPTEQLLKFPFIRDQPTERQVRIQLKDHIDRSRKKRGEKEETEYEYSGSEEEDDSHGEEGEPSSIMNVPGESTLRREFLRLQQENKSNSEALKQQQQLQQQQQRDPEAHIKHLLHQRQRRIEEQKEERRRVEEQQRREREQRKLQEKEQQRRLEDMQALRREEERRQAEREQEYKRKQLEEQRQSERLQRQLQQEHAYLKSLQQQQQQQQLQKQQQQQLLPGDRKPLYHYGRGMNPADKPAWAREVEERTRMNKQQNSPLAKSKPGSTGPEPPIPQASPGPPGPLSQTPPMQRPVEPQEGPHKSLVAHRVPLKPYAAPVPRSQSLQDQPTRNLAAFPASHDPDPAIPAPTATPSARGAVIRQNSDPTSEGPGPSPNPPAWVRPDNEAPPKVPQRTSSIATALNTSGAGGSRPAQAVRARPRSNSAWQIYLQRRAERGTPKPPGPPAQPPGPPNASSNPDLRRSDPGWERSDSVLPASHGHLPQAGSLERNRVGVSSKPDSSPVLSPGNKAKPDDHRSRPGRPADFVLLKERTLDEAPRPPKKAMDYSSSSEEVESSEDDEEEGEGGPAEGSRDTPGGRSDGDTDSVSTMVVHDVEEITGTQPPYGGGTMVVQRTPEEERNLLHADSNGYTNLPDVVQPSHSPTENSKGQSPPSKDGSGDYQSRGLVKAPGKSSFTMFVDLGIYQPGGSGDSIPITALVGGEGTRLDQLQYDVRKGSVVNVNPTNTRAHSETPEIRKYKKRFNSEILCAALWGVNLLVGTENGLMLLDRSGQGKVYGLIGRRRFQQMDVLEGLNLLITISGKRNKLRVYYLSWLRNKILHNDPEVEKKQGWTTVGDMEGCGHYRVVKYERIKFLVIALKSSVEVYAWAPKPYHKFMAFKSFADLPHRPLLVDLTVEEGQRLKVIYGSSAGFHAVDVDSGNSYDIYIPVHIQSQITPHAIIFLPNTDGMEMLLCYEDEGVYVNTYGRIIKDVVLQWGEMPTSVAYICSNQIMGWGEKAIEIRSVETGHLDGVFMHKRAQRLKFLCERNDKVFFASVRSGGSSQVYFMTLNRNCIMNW
UniProt O95396: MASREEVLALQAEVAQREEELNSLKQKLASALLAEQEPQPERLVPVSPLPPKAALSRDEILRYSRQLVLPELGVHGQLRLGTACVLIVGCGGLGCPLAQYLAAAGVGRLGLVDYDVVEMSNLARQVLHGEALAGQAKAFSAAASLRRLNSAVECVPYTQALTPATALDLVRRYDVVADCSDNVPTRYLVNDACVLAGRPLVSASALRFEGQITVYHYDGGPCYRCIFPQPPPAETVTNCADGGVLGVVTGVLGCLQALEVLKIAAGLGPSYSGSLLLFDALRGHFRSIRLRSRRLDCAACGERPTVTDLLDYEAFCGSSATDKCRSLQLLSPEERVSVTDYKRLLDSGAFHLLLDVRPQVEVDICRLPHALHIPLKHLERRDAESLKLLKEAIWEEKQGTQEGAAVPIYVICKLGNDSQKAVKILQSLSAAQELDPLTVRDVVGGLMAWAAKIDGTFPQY
UniProt O96028: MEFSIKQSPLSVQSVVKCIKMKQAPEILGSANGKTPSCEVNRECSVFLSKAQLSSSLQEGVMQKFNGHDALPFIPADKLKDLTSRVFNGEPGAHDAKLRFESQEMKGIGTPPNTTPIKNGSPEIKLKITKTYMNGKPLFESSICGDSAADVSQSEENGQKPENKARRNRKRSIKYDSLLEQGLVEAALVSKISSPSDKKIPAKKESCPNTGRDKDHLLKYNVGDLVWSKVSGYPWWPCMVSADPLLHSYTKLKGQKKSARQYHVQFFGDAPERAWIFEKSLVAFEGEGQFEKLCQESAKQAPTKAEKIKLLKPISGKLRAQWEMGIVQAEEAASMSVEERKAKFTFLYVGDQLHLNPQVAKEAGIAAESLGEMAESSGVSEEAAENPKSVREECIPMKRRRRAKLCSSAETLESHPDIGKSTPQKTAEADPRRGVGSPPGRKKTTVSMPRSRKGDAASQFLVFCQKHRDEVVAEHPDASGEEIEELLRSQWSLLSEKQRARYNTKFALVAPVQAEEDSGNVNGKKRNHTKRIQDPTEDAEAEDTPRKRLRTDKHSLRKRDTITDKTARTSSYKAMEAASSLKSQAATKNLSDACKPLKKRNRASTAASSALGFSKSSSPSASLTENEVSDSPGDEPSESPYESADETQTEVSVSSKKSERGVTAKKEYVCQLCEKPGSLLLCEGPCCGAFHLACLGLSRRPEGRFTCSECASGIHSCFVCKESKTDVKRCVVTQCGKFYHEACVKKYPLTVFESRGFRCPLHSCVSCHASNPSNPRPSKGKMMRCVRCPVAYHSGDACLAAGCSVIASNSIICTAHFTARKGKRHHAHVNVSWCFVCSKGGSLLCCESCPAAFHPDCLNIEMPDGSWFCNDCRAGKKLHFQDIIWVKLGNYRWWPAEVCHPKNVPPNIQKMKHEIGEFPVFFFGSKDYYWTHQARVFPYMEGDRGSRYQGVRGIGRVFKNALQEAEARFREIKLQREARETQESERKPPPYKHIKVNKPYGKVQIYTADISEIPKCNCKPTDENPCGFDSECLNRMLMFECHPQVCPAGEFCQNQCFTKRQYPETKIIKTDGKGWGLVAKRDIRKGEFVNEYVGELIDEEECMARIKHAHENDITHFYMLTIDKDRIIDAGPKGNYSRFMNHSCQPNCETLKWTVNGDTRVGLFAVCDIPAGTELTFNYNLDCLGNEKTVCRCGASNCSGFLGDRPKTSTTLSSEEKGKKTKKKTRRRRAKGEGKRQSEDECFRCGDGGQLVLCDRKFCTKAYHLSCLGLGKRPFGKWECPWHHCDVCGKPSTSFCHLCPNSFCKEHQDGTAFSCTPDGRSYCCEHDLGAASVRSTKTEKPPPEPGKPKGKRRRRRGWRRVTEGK
UniProt P53778: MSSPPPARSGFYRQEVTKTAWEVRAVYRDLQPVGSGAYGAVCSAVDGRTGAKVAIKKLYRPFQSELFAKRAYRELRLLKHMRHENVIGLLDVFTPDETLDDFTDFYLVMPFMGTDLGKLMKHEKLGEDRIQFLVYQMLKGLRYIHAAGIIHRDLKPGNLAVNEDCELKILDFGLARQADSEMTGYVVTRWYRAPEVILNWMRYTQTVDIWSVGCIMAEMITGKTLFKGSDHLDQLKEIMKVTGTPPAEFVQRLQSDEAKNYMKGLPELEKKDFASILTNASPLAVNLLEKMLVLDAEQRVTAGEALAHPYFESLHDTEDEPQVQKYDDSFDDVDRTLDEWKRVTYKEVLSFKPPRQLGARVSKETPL
UniProt Q9HCC0: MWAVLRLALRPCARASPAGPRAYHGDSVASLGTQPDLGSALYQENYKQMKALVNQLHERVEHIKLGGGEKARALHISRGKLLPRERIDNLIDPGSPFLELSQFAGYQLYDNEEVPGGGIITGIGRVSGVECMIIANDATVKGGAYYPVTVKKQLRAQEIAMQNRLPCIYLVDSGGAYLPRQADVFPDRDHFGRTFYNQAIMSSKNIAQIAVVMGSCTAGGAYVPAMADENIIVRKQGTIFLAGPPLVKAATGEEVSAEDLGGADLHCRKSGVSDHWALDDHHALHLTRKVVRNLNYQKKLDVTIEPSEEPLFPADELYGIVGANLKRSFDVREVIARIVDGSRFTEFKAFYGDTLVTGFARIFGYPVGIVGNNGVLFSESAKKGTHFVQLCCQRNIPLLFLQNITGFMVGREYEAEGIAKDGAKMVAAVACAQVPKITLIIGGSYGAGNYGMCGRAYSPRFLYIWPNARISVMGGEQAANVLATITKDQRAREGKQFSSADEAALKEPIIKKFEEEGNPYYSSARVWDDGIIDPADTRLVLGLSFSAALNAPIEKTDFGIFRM
UniProt Q15528: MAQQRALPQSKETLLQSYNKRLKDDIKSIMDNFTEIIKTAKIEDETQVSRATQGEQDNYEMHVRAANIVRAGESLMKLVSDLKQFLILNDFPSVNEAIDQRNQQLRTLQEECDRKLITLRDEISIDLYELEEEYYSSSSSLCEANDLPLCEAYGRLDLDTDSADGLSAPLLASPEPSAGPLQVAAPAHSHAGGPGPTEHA
UniProt Q96EZ8, whole entry: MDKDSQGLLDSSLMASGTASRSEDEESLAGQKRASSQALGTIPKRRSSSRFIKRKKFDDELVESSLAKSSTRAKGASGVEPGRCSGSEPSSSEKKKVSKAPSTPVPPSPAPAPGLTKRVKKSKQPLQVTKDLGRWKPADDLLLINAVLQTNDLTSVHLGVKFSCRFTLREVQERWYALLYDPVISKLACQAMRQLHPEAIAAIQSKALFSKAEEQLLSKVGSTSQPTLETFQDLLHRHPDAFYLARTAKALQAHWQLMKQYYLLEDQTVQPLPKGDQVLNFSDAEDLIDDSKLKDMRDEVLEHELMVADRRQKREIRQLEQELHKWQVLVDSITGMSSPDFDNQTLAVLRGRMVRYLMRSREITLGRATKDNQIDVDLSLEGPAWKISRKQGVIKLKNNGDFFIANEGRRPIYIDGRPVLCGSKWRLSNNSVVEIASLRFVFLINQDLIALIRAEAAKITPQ
UniProt Q6P1Q9: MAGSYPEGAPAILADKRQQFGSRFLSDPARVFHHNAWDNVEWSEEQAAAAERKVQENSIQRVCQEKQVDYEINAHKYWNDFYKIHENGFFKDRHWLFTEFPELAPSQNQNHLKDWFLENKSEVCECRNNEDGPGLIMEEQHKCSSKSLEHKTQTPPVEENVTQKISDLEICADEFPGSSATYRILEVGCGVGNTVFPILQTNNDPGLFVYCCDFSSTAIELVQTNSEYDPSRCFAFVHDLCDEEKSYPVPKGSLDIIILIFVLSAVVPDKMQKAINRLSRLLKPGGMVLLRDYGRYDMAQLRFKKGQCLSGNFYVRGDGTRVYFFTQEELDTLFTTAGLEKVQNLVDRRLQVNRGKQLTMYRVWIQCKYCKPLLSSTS
UniProt Q9Y4U1: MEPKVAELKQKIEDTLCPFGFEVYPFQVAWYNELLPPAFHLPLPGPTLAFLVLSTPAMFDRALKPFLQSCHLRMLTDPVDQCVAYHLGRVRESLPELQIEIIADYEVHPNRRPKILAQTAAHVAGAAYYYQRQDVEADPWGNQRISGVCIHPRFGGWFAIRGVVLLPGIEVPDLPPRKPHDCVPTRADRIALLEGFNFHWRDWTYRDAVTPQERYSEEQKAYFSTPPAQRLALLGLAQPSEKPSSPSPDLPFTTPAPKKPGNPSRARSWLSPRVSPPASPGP
UniProt P45985: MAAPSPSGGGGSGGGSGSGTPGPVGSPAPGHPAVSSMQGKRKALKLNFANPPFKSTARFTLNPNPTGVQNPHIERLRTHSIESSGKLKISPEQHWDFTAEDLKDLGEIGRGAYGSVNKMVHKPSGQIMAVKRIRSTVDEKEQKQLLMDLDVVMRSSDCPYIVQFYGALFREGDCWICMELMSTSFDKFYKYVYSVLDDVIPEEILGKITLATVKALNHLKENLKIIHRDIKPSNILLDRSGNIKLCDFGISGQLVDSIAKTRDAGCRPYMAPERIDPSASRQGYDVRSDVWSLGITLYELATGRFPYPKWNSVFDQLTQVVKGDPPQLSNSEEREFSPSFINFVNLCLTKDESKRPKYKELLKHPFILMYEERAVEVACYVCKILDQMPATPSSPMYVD
UniProt Q71SY5: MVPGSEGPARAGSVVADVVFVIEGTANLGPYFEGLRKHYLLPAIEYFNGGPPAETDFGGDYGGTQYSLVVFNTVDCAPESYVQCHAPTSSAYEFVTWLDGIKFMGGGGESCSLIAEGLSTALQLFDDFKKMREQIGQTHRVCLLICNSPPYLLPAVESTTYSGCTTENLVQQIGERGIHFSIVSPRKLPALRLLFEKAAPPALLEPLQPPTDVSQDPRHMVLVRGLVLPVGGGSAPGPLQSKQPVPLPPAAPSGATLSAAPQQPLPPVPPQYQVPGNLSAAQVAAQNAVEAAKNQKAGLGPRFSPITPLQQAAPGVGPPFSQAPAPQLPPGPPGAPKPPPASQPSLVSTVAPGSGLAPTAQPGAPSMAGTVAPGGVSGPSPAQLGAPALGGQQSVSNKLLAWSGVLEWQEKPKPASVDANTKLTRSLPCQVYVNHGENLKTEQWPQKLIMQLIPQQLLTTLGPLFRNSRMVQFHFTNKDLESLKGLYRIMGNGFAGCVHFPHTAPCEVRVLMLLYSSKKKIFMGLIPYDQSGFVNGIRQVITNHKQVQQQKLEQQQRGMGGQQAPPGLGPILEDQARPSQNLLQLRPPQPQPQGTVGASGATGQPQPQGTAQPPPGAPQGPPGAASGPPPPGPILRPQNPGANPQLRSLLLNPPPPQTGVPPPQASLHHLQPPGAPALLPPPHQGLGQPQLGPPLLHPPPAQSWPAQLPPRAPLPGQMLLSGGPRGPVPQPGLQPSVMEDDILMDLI

compound: COc1ccc(Cn2ccc3ccc(C(=O)NO)cc32)cc1; experiment: dose-dependent thermal stabilisation call (2D-TPP, DLPTP, 10% FDR) (binary (1 = stabilised)); higher = stabilised by the compound; details: system: HL-60 intact cells; concentration range 0.04-10 µM

| Target | dose-dependent thermal stabilisation call |
| --- | --- |
| MINK1 (UniProt Q8N4C8) | inactive: 0 |
| MOCS3 (UniProt O95396) | inactive: 0 |
| METT10D (UniProt Q86W50) | inactive: 0 |
| MMSET (UniProt O96028) | inactive: 0 |
| MRPL9 (UniProt Q9BYD2) | inactive: 0 |
| MAPK12 (UniProt P53778) | inactive: 0 |
| MIF4GD (UniProt A9UHW6) | inactive: 0 |
| MCM3 (UniProt P25205) | inactive: 0 |
| MED1 (UniProt Q15648) | inactive: 0 |
| MRPS24 (UniProt Q96EL2) | inactive: 0 |
| MORC3 (UniProt Q14149) | inactive: 0 |
| MAPKAPK2 (UniProt P49137) | inactive: 0 |
| MCCC2 (UniProt Q9HCC0) | inactive: 0 |
| MPZL1 (UniProt O95297) | inactive: 0 |
| MBIP (UniProt Q9NS73) | inactive: 0 |
| MARS (UniProt P56192) | inactive: 0 |
| MRPL37 (UniProt Q9BZE1) | inactive: 0 |
| MRPL13 (UniProt Q9BYD1) | inactive: 0 |
| MED22 (UniProt Q15528) | inactive: 0 |

2 successive entries from above:

| Target | dose-dependent thermal stabilisation call |
| --- | --- |
| MRPS24 (UniProt Q96EL2) | inactive: 0 |
| MORC3 (UniProt Q14149) | inactive: 0 |

More entries follow:

| Target | dose-dependent thermal stabilisation call |
| --- | --- |
| MBP (UniProt P02686) | inactive: 0 |
| MARCKSL1 (UniProt P49006) | inactive: 0 |
| MCRS1 (UniProt Q96EZ8) | inactive: 0 |
| MRPL4 (UniProt Q9BYD3) | inactive: 0 |
| METTL2B (UniProt Q6P1Q9) | inactive: 0 |
| MMACHC (UniProt Q9Y4U1) | inactive: 0 |
| MRPS16 (UniProt Q9Y3D3) | inactive: 0 |
| MAPKAPK3 (UniProt Q16644) | inactive: 0 |
| MOBKL1B (UniProt Q9H8S9) | inactive: 0 |
| MED13L (UniProt Q71F56) | inactive: 0 |
| MRPS30 (UniProt Q9NP92) | inactive: 0 |
| MEF2D (UniProt Q14814) | inactive: 0 |
| MGAT4B (UniProt Q9UQ53) | inactive: 0 |
| MAP2K4 (UniProt P45985) | inactive: 0 |
| MED25 (UniProt Q71SY5) | inactive: 0 |
| MMAB (UniProt Q96EY8) | inactive: 0 |
| MED15 (UniProt Q96RN5) | inactive: 0 |
| MCM5 (UniProt P33992) | inactive: 0 |
| MBOAT1 (UniProt Q6ZNC8) | inactive: 0 |
